At least one structure is not confirmed: it was looked up by name or label, or the drawing left a doubt.
Tested on: NRRL B-50575
Experiment: Antibiotic susceptibility, disk method on L-agar
Assay type: cell-based, Serratia
Settings: list of identifying characteristics
Protocol: Antibiotic Susceptibility: Two agar plates were streaked for growth with NRRL B-50575, and 8 paper discs, each soaked in a different antibiotic, were placed on the agar, with 4 discs on each plate. Disks containing the following antibiotics were used/obtained from Remel (Lenexa Kans.): ampicillin (10 μg), chloramphenicol (30 μg), erythromycin (30 μg), kanamycin (30 μg), neomycin (30 μg), tetracycline (30 μg), triple sulfa (300 μg) and vancomycin (30 μg). The plates were incubated for 24 hours at 25° C., and after this incubation period the zone of inhibition around each disc was measured.
The diffusible pink pigment (FIG. 4) produced by NRRL B-50575 (TP 07) was different from the red pigment of BF1 and ATCC 13880 (ATCC-SM), and the pigment was made at temperatures below 25° C. Antibiotic susceptibility was determined using the disk method per manufacturer's instructions on L-agar, incubated at 25° C. (Table 6). All of the pink bacterial strains had the similar antibiotic resistance. They differed in sensitivity to tetracycline, kanamycin, and chloramphenicol. They also differed from BF1 and ATCC 13880 in sensitivity to erythromycin.

In the case of CN(C)[C@@H]1C(O)=C(C(N)=O)C(=O)[C@@]2(O)C(O)=C3C(=O)c4c(O)cccc4[C@@](C)(O)[C@H]3C[C@@H]12 [Tetracycline, tetracycline], the “resistance to antibiotics of NRRL B-50575 (in words)” value is reported as “intermediate”.

With NC[C@H]1O[C@H](O[C@H]2[C@H](O)[C@@H](O[C@H]3O[C@H](CO)[C@@H](O)[C@H](N)[C@H]3O)[C@H](N)C[C@@H]2N)[C@H](O)[C@@H](O)[C@@H]1O [Kanamycin, kanamycin] the “resistance to antibiotics of NRRL B-50575 (in words)” value was “susceptible”.

Reference: patent US9480261B1, “Insecticidal strain of Serratia for control of brown marmorated stink bug (BMSB), Halyomorpha halys” (priority 2014, dated 2016)
